For 1 molecule, binding results are on record in article PMC8219831, “Native mass spectrometry analyses of chaperonin complex TRiC/CCT reveal subunit N-terminal processing and re-association patterns” (Scientific Reports, 2021).

Amino acid sequences for entries named in this document (tags omitted). Residues count along the entry.
UniProt P48643, residues 2-541: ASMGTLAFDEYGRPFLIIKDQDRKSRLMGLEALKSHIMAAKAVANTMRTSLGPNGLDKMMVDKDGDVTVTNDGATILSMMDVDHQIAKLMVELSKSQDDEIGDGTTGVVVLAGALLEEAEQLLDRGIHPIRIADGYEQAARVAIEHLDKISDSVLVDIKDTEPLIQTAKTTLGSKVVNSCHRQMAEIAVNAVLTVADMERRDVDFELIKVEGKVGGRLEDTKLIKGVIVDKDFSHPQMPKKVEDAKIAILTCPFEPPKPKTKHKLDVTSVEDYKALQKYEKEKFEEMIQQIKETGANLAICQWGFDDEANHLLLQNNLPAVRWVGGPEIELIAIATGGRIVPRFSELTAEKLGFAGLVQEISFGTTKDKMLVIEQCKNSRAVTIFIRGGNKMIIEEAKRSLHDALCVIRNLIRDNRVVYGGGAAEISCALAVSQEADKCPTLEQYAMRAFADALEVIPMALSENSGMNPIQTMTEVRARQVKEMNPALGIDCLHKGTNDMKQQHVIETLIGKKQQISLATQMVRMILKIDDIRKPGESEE

The target of this assay is human TRiC subunit CCT5 (human) (UniProt P48643). Kind of assay: native MS; hTRiC in ammonium acetate pH 7.5 disrupted with 25% (v/v) DMSO, analysed within 30 min; dimers assigned by mass within 12 Da; both purified.

These are yes or no findings as the source states them, for the method shown. Some results given as binding are weak or reduced against the parent protein; the word gives no strength.

B1: human TRiC subunit CCT4 (natural protein, UniProt P50991 2-539, looked up)
chain: PENVAPRSGATAGAAGGRGKGAYQDRDKPAQIRFSNISAAKAVADAIRTSLGPKGMDKMIQDGKGDVTITNDGATILKQMQVLHPAARMLVELSKAQDIEAGDGTTSVVIIAGSLLDSCTKLLQKGIHPTIISESFQKALEKGIEILTDMSRPVELSDRETLLNSATTSLNSKVVSQYSSLLSPMSVNAVMKVIDPATATSVDLRDIKIVKKLGGTIDDCELVEGLVLTQKVSNSGITRVEKAKIGLIQFCLSAPKTDMDNQIVVSDYAQMDRVLREERAYILNLVKQIKKTGCNVLLIQKSILRDALSDLALHFLNKMKIMVIKDIEREDIEFICKTIGTKPVAHIDQFTADMLGSAELAEEVNLNGSGKLLKITGCASPGKTVTIVVRGSNKLVIEEAERSIHDALCVIRCLVKKRALIAGGGAPEIELALRLTEYSRTLSGMESYCVRAFADAMEVIPSTLAENAGLNPISTVTELRNRHAQGEKTAGINVRKGGISNILEELVVQPLLVSVSALTLATETVRSILKIDDVVNTR
notes: CCT4 subunit of human TRiC; initiator methionine removed, proline exposed, not acetylated (from the measured mass); also called CCTδ; source: Hi5 (Trichoplusia ni) cells, baculovirus pYC35 co-expressing CCT1-8; purified as hTRiC (calmodulin resin, monoQ, SEC); released by RP-HPLC or by 25% DMSO or methanol
B1: the binding result was “binds”.
